In article PMC9054788:
No constants are given. Whether binding was seen depends on the method and setting. In cells and extracts the contact can be indirect. Some entries that bind do so weakly or less than the wild type. For some assays here: Sequences can lack the tags named with a protein. Blank lines part the entries; values can stand above or below the molecule they belong to.

Sequences of proteins named here, by UniProt entry; tags and fusion partners are left off.
UniProt Q96RR4: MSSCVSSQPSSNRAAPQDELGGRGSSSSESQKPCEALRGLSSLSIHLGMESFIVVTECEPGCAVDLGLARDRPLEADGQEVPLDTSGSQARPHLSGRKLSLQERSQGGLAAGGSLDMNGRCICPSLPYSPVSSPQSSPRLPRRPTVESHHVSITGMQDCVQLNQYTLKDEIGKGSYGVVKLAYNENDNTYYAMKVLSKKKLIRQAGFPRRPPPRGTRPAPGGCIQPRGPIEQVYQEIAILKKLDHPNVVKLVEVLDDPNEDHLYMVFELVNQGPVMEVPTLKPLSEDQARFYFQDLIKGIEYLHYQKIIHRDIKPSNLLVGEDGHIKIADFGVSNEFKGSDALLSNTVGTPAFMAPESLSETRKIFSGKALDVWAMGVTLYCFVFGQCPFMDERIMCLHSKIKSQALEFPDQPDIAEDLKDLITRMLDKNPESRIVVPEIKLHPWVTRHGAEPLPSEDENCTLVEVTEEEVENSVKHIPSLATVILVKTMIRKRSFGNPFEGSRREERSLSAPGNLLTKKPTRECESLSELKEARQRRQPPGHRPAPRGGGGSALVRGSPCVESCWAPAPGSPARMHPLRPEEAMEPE

Legend:
Midkine = biological target: T1, Midkine (UniProt P21741); test: pull-down; indicated constructs expressed in HEK293T cells for 24 h; cell lysates pulled down with S protein beads (Fig. 2b, c)
T1 sequence: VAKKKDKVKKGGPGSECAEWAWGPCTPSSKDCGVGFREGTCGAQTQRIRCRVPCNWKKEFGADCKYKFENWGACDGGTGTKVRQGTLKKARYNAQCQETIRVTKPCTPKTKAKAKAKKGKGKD

[1] = biological target: T2, FLAG-tagged LKB1-KD (K78L) (UniProt Q15831); test: co-IP; FLAG-tagged LKB1 WT or KD (K78L) expressed in HEK293T cells (Supplementary Fig. S3a)
T2 sequence: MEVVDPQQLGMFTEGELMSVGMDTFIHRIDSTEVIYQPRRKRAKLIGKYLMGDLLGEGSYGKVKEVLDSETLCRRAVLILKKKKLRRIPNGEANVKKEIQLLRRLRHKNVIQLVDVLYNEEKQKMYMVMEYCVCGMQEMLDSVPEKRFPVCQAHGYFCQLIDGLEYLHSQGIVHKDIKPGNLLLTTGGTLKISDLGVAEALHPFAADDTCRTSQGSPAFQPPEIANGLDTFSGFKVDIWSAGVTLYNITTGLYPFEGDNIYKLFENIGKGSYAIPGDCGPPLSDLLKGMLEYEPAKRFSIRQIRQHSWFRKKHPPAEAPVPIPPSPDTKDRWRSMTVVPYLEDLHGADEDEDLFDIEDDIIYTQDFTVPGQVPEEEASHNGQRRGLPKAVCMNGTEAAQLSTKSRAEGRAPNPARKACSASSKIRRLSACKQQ

[2] = biological target: T3, FLAG-tagged wild-type LKB1 (UniProt Q15831); test: as above
T3 sequence: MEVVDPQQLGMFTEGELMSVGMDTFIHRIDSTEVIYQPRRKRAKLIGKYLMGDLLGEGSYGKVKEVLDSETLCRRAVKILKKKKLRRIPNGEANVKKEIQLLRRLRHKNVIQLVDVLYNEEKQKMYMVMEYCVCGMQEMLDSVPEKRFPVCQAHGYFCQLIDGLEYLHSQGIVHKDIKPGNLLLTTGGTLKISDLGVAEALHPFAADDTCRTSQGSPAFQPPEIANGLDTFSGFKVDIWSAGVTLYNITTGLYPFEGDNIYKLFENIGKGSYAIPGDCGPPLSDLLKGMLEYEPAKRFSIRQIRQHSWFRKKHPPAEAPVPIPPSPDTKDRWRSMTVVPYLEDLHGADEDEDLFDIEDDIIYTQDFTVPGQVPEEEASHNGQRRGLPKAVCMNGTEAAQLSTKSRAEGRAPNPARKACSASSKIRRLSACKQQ

[3] = biological target: T4, endogenous LKB1 (human (endogenous in HEK293T, HCCLM3, HepG2)) (UniProt Q15831); test: co-IP; endogenous LKB1 immunoprecipitated from HEK293T cells transduced with MDK-HA or control
T4 sequence: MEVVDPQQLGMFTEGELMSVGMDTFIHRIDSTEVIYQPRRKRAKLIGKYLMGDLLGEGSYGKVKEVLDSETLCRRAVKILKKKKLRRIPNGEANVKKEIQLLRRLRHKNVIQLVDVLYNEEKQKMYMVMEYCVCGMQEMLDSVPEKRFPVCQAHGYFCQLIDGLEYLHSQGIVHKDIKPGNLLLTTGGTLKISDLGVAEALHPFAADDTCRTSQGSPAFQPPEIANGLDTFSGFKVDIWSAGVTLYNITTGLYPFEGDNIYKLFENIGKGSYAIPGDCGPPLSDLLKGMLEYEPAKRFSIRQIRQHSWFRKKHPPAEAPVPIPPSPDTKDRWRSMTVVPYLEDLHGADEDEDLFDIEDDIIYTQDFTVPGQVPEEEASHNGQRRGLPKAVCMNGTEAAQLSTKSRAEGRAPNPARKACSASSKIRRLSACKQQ

SFB-tagged LKB1 = biological target: T5, SFB-tagged LKB1 (UniProt Q15831); test: pull-down; HEK293T cells cotransfected with different doses of MDK-HA and SFB-tagged LKB1 or SFB-tagged AMPKα1; pulled down with S protein beads
T5 sequence: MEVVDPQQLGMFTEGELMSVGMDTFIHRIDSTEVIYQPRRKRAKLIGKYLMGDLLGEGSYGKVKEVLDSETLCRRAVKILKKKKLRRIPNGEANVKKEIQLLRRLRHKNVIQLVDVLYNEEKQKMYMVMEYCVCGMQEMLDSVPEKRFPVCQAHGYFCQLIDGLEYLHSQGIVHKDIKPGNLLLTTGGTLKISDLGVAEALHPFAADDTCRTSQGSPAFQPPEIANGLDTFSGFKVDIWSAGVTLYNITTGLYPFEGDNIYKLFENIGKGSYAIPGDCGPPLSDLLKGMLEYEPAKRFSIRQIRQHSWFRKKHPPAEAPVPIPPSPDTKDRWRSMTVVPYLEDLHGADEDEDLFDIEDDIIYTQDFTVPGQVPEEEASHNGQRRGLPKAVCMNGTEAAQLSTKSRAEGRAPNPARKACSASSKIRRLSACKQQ

[4] = biological target: T4, endogenous LKB1 (human (endogenous in HEK293T, HCCLM3, HepG2)); test: co-IP; endogenous MDK or endogenous LKB1 immunoprecipitated from HCCLM3 or HepG2 cells, Western blot; also HCCLM3 cells transduced with MDK shRNA1
[5] = biological target: T6, endogenous Midkine (human (endogenous in HCCLM3 and HepG2)) (UniProt P21741); test: as above
T6 sequence: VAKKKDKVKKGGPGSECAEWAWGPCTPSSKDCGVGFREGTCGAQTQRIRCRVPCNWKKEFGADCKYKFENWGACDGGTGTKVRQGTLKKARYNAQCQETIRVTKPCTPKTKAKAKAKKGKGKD

[6] = biological target: T2, FLAG-tagged LKB1-KD (K78L); test: co-IP; FLAG-tagged LKB1-KD and SFB-tagged AMPKα1 expressed in HEK293T cells for 48 h with or without MDK-HA; immunoprecipitation with primary LKB1 and IgG antibodies
[7] = biological target: T7, Midkine stably expressed in A549 cells (UniProt P21741); test: co-IP; MDK coprecipitates from A549 cells stably expressing MDK, LKB1 reconstituted
T7 sequence: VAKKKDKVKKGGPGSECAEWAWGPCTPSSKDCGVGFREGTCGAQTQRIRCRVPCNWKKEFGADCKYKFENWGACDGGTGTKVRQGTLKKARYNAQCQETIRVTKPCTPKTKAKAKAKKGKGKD

[8] = biological target: CAMKKβ (construct of Fig. 2b, not told) (UniProt Q96RR4); test: pull-down; indicated constructs expressed in HEK293T cells for 24 h; cell lysates pulled down with S protein beads (Fig. 2b, c)
[9] = biological target: T8, LKB1 (construct not told) (UniProt Q15831); test: as above
T8 sequence: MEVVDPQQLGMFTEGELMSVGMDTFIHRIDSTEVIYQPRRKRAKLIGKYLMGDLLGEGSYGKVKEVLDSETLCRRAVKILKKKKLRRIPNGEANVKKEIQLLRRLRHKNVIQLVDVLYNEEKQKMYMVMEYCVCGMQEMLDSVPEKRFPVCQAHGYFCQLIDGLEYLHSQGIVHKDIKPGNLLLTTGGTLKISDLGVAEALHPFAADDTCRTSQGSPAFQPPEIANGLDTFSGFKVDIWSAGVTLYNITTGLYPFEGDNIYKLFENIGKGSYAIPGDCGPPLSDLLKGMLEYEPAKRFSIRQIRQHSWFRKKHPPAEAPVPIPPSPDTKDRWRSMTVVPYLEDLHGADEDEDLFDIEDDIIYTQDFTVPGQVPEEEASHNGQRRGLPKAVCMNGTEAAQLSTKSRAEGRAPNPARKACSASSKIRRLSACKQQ

MDK-HA = biological target: T9, MDK-HA (UniProt P21741); test: co-IP; HEK293T cells cotransfected with MDK-HA and Flag-tagged LKB1 or Myc-tagged Mo25a; immunoprecipitated with HA primary antibody
T9 sequence: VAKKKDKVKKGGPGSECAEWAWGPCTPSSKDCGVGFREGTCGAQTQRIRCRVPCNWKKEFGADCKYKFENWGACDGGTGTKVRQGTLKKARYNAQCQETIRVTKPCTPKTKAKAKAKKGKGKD

B4: Mo25a (protein, UniProt Q9Y376 1-341)
chain: MPFPFGKSHKSPADIVKNLKESMAVLEKQDISDKKAEKATEEVSKNLVAMKEILYGTNEKEPQTEAVAQLAQELYNSGLLSTLVADLQLIDFEGKKDVAQIFNNILRRQIGTRTPTVEYICTQQNILFMLLKGYESPEIALNCGIMLRECIRHEPLAKIILWSEQFYDFFRYVEMSTFDIASDAFATFKDLLTRHKLLSAEFLEQHYDRFFSEYEKLLHSENYVTKRQSLKLLGELLLDRHNFTIMTKYISKPENLKLMMNLLRDKSRNIQFEAFHVFKVFVANPNKTQPILDILLKNQAKLIEFLSKFQNDRTEDEQFNDEKTYLVKQIRDLKRPAQQEA
- binding [7]: no binding
- binding [1]: binds
- binding [2]: binds
- binding [3]: binds
- binding (Midkine): no binding
- binding (SFB-tagged LKB1): binds
- binding [4]: binds
- binding [5]: no binding
- binding [6]: binds

B5: Midkine (wild type, construct not told) (protein, UniProt P21741 21-143)
chain: VAKKKDKVKKGGPGSECAEWAWGPCTPSSKDCGVGFREGTCGAQTQRIRCRVPCNWKKEFGADCKYKFENWGACDGGTGTKVRQGTLKKARYNAQCQETIRVTKPCTPKTKAKAKAKKGKGKD
- binding [8]: binds
- binding [9]: binds

B6: Myc-tagged Mo25a (protein, UniProt Q9Y376 1-341)
chain: MPFPFGKSHKSPADIVKNLKESMAVLEKQDISDKKAEKATEEVSKNLVAMKEILYGTNEKEPQTEAVAQLAQELYNSGLLSTLVADLQLIDFEGKKDVAQIFNNILRRQIGTRTPTVEYICTQQNILFMLLKGYESPEIALNCGIMLRECIRHEPLAKIILWSEQFYDFFRYVEMSTFDIASDAFATFKDLLTRHKLLSAEFLEQHYDRFFSEYEKLLHSENYVTKRQSLKLLGELLLDRHNFTIMTKYISKPENLKLMMNLLRDKSRNIQFEAFHVFKVFVANPNKTQPILDILLKNQAKLIEFLSKFQNDRTEDEQFNDEKTYLVKQIRDLKRPAQQEA
- binding (MDK-HA): no binding

Now from value to molecule:

- binding (Midkine): binds
Molecule: endogenous CAMKKβ (from UniProt Q96RR4 1-588)

- binding [1]: binds
- binding [2]: binds
- binding [3]: binds
- binding (Midkine): binds
- binding (SFB-tagged LKB1): binds
- binding [4]: binds
- binding [5]: binds
- binding [6]: binds
B1: STRADα (protein, UniProt Q7RTN6 1-431)
chain: MSFLVSKPERIRRWVSEKFIVEGLRDLELFGEQPPGDTRRKTNDASSESIASFSKQEVMSSFLPEGGCYELLTVIGKGFEDLMTVNLARYKPTGEYVTVRRINLEACSNEMVTFLQGELHVSKLFNHPNIVPYRATFIADNELWVVTSFMAYGSAKDLICTHFMDGMNELAIAYILQGVLKALDYIHHMGYVHRSVKASHILISVDGKVYLSGLRSNLSMISHGQRQRVVHDFPKYSVKVLPWLSPEVLQQNLQGYDAKSDIYSVGITACELANGHVPFKDMPATQMLLEKLNGTVPCLLDTSTIPAEELTMSPSRSVANSGLSDSLTTSTPRPSNGDSPSHPYHRTFSPHFHHFVEQCLQRNPDARPSASTLLNHSFFKQIKRRASEALPELLRPVTPITNFEGSQSQDHSGIFGLVTNLEELEVDDWEF

- binding (Midkine): binds
B2: STRADβ (protein, UniProt Q9C0K7 1-418)
chain: MSLLDCFCTSRTQVESLRPEKQSETSIHQYLVDEPTLSWSRPSTRASEVLCSTNVSHYELQVEIGRGFDNLTSVHLARHTPTGTLVTIKITNLENCNEERLKALQKAVILSHFFRHPNITTYWTVFTVGSWLWVISPFMAYGSASQLLRTYFPEGMSETLIRNILFGAVRGLNYLHQNGCIHRSIKASHILISGDGLVTLSGLSHLHSLVKHGQRHRAVYDFPQFSTSVQPWLSPELLRQDLHGYNVKSDIYSVGITACELASGQVPFQDMHRTQMLLQKLKGPPYSPLDISIFPQSESRMKNSQSGVDSGIGESVLVSSGTHTVNSDRLHTPSSKTFSPAFFSLVQLCLQQDPEKRPSASSLLSHVFFKQMKEESQDSILSLLPPAYNKPSISLPPVLPWTEPECDFPDEKDSYWEF

- binding [4]: binds
B3: endogenous Midkine (protein, UniProt P21741 21-143)
chain: VAKKKDKVKKGGPGSECAEWAWGPCTPSSKDCGVGFREGTCGAQTQRIRCRVPCNWKKEFGADCKYKFENWGACDGGTGTKVRQGTLKKARYNAQCQETIRVTKPCTPKTKAKAKAKKGKGKD
